# These are yes or no findings as the source states them, for the method shown. In cells and extracts the contact can be indirect. Some entries that bind do so weakly or less than the wild type. Where a sequence is shown, tags or fusion partners need not be part of it.
# The chains behind the UniProt entries cited, without tags or fusion partners.
# UniProt Q8VI67: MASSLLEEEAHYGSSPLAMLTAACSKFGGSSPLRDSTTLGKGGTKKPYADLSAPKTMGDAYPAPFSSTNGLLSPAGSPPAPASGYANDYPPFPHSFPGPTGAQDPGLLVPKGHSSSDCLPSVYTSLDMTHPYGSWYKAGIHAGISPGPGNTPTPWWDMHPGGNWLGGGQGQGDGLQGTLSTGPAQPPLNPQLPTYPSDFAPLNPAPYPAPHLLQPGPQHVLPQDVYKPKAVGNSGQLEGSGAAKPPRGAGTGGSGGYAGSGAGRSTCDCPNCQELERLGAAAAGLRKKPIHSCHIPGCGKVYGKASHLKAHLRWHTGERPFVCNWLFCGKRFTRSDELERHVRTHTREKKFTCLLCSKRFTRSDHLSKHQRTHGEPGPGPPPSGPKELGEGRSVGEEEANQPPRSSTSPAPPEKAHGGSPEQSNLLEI
# What was measured:
# Myc-USP17 wild type = target: T1, Myc-USP17 wild type (UniProt Q6R6M4); experiment: co-IP; HEK 293 cells co-transfected with HA-Osx and Myc-USP17; whole cell lysates incubated with appropriate antibodies and Protein A Sepharose CL-4B; detected by IB; lysis buffer 5 mM HEPES pH 7.5, 150 mM NaCl, 1% NP-40, 0.25% sodium deoxycholate
# T1 sequence: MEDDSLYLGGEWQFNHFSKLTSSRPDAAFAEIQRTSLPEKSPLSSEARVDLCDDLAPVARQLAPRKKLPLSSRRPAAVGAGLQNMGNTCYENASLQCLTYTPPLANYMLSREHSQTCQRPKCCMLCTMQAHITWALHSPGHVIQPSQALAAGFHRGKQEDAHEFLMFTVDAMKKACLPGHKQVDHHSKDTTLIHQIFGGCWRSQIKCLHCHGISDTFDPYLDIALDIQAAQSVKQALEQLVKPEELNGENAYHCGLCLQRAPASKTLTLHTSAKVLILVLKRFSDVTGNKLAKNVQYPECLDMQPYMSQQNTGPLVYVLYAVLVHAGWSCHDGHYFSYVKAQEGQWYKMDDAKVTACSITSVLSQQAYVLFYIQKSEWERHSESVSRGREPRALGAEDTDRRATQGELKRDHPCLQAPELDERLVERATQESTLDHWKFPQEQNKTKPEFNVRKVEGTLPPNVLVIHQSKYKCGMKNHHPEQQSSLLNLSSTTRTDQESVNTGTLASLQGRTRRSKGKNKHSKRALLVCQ
# GST-USP17 = target: T2, GST-USP17 (UniProt Q6R6M4); experiment: pull-down; GST or GST-USP17 on glutathione-Sepharose beads incubated with whole-cell lysate of HEK 293 cells transfected with HA-Osx, 4 °C; washed with 20 mM HEPES pH 7.4, 120 mM NaCl, 10% glycerol, 2 mM EDTA; detected by IB; only the target purified
# T2 sequence: T1 sequence
substance,measurement,setting,value
HA-Osx (Osterix) (from UniProt Q8VI67 1-428),binding,Myc-USP17 wild type,binds
same,binding,GST-USP17,binds

# From publication PMC10607737
